{"sequences": {"note": "By UniProt entry, the sequences of proteins in these tests, tags left out. Residues count along the entry.", "GST-IP3R domain 3 fragment (P11881, residues 922-1581)": "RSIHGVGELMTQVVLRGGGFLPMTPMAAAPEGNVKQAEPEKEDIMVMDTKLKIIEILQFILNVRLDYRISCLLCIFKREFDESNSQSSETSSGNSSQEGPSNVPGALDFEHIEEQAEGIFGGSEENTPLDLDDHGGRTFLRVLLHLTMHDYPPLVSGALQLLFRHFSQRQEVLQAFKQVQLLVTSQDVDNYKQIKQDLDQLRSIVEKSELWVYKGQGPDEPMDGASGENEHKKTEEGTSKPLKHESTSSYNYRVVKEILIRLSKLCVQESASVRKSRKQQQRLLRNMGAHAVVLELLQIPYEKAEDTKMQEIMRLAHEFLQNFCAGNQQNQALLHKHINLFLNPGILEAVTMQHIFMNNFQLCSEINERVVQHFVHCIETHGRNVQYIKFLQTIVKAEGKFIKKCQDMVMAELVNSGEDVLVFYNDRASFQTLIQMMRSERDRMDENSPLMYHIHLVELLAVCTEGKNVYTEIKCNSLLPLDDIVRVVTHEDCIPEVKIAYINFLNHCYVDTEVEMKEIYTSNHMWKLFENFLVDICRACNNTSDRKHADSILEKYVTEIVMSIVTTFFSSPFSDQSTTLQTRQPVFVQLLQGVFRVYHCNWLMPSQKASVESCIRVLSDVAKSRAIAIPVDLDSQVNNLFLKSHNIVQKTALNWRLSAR", "GST-IP3R subdomain 3a1 (aa 1347-1426) (P11881, residues 1347-1426)": "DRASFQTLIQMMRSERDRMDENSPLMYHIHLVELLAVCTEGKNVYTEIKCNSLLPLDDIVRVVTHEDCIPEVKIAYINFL", "UniProt P10415": "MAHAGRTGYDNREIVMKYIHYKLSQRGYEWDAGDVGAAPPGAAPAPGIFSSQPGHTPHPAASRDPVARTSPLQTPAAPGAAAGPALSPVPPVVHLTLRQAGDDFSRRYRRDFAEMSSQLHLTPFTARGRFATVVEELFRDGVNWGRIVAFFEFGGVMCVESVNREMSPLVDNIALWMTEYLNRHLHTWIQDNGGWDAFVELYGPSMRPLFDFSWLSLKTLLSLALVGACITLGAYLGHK"}, "source": "patent US20090048168A1", "about": "(CASE WESTERN RESERVE UNIVERSITY, published 2009)", "key": {"[1]": {"target": "GST-IP3R domain 3 fragment (mouse) (UniProt P11881)", "assay": "GST pull-down under three buffer and wash conditions"}, "[2]": {"target": "GST-IP3R subdomain 3a1 (aa 1347-1426) (mouse) (UniProt P11881)", "assay": "GST pull-down with smaller fragments of domain 3"}, "[3]": {"target": "GST-IP3R domain 3 fragment (mouse) (UniProt P11881)", "assay": "GST pull-down from Bcl-2(+) WEHI7.2 cell extract, Bcl-2 immunoblot"}, "[4]": {"target": "GST-IP3R domain 3 fragment (mouse) (UniProt P11881)", "assay": "GST pull-down from Jurkat cell extract, Bcl-2 immunoblot"}, "[5]": {"target": "GST-IP3R domain 3 fragment (mouse) (UniProt P11881)", "assay": "GST pull-down with purified protein, three separate experiments"}}, "note": "Results are given in words; binding and its absence hold for the method and conditions named. Binding seen in cells or lysates may run through a third protein. Some results given as binding are weak or reduced against the parent protein; the word gives no strength.", "data": [{"substance": "Bcl-2 (source not stated in the buffer comparison and subdomain pull-downs) (from UniProt P10415 1-239)", "values": [{"measurement": "binding", "setting": "[1]", "result": "binds"}, {"measurement": "binding", "setting": "[2]", "result": "binds"}]}, {"substance": "Bcl-2 exogenously expressed in WEHI7.2 cells (from UniProt P10415 1-239)", "values": [{"measurement": "binding", "setting": "[3]", "result": "binds"}]}, {"substance": "endogenous Bcl-2 in Jurkat cells (from UniProt P10415 1-239)", "values": [{"measurement": "binding", "setting": "[4]", "result": "binds"}]}, {"substance": "purified His-tagged full-length Bcl-2 (from UniProt P10415 1-239)", "values": [{"measurement": "binding", "setting": "[5]", "result": "binds"}]}]}
